System: E. coli (ATCC strain 8739)
Assay: Effect of antibacterial compounds on bacteria with Alamar Blue (colorimetric OD595 assay)
Assay type: cell-based

SMILES: O=C(O)c1cn(C2CC2)c2cc(N3CCNCC3)c(F)cc2c1=O [ciprofloxacin]
- characteristic pattern or "fingerprint": increased metabolic oxidation-reduction activity (Alamar Blue OD595) relative to untreated control cells (E. coli 5x10^7/mL, test compound two-fold dilutions from 64 μg/mL, readings 0-120 min, best seen at 30 min (FIG. 6)): did not show the “fingerprint.”
- characteristic "fingerprint" with metabolic oxidation-reduction indicator dye (statement on negative controls) (for bacteria, summary statement): do not exhibit the characteristic “fingerprint,”

Source: patent US6436660B1, “Identification of novel antimicrobial agents using metabolic oxidation-reduction indicator dyes” (XOMA Technology Ltd., priority 1999, dated 2002)
